The results in this text go back to article doi:10.1101/559641.

Sequences of proteins named here, by UniProt entry; tags and fusion partners are left off.
UniProt Q64321: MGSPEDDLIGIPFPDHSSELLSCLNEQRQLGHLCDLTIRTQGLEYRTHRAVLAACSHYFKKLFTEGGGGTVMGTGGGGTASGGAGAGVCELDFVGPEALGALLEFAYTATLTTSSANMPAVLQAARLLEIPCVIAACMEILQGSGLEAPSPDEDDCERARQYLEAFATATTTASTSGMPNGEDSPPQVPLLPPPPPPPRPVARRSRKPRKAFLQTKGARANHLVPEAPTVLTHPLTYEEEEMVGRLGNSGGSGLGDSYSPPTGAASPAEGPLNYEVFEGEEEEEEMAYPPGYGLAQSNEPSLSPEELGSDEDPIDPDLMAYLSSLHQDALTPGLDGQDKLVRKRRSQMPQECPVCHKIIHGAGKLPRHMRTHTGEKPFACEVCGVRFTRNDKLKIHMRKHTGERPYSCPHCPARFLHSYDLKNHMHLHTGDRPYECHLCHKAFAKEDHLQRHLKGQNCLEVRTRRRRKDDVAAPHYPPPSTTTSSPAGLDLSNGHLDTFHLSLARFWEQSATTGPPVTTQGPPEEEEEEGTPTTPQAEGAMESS

These are yes or no findings as the source states them, for the method shown. In cells and extracts the contact can be indirect. Here binding means that the protein was enriched with, or labelled near, the bait; the list need not be complete.

The target of this assay is N-terminal 3X-FLAG-tagged vertebrate GAF (vGAF/ThPOK/ZBTB7B), expressed in C2C12 myoblast cells (UniProt Q64321). Kind of assay: affinity purification with mass spectrometry.

B1: ZNF281 (protein, UniProt Q99LI5 1-893)
chain: MKIGSGFLSGGGGPSSSGGSGSGGSSGSASGGSGGGRRAEMEPTFPQSMVMFNHRLPPVTSFTRPAGTAAPPPQCVLSSSTSAAPAAEPPPPPAPDMTFKKEPAASAAAFPSQRTSWGFLQSLVSIKQEKPADPEEQPSHHHHHHHHYGGLFAGAEERSPGLGGGEGGSHGVIQDLSLLHQHAQQQPAQHHRDVLLSSGSRTDEHGNQEPKQDANVKKAKRPKPESQGIKAKRKPSASSKPLVGEGEGAVLSPSQKPHICDHCSAAFRSSYHLRRHVLIHTGERPFQCSQCSMGFIQKYLLQRHEKIHSREKPFGCDQCSMKFIQKYHMERHKRTHSGEKPYKCDTCQQYFSRTDRLLKHRRTCGEAIAKGAASAEPGSSNHNSMGNLAVLSQGNTSSSRRKSKSKSIAIENKEHKTGKTNESQMSNNINMQSYSVEMPTVSTSGSIIGTGIDELQKRVPKLIFKKGSRKNADKSYLNFVSPLPDVVGQKSLSGKPGGSLGIVSNNSVETISLLQSTSGKQGPISSNYDDAMQFSKKRRYLPTASSNSAFSINVGHMVSQQSVIQSAGVSVLDNEAPLSLIDSSALNAEIKSCHDKSGIPDEVLQSILDQYSGKSETQKEDPFNLTEPRVDLHTSGEHSELVQEENLSPGTQTPSNDKTSMLQEYSKYLQQAFEKSTNAGFTLGHGFQFVSLSSPLHNHTLFPEKQIYTTSPLECGFGQSVTSVLPSSLPKPPFGMLFGSQPGLYLSALDATHQQLTPSQELDDLIDSQKNLETSSAFQSSSQKLTSQKEQQKNLESSTSFQIPSQELASQIDPQKDIEPRTTYQIENFAQAFGSQFKSGSRVPMTFITNSNGEVDHRVRTSVSDFSGYTNMMSDVSEPCSTRVKTPTSQSYR
As for B1, the binding result is given as “binds”.
